The whole screen tested about 260,000 compounds, of which about 1,500 (0.58%) were called active. All entries are inconclusive by the source's own rule. Clear calls are listed elsewhere.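 How the source made its calls: active means inhibition above a set limit at one or more doses, reproduced on every date tested; inconclusive means results disagree between test dates, or hit never tested in dose response; inactive means the rest.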 Some results for these compounds are left out of this collection, so the calls shown say nothing about other tests.
Molecular target: Virion infectivity factor (Human immunodeficiency virus type 1 group M subtype B (isolate BH10)) + Virion infectivity factor (Human immunodeficiency virus type 1 group M subtype B (isolate BRU/LAI)) + Virion infectivity factor (Human immunodeficiency virus type 1 group M subtype B (isolate PCV12)) + Virion infectivity factor (Human immunodeficiency virus type 1 group M subtype B (isolate HXB2)) + DNA dC->dU-editing enzyme APOBEC-3G (Homo sapiens) (UniProt P69720+P69721+P69722+P69723+Q9HC16)
Assay: HIV-1 Vif–A3G interaction blockers – biochemical, TR-FRET, GST-Vif 1-94, biotin-A3G peptide, dose response retest, primary screen (AID 1117319);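 further: Vif residues 1-94 fused to GST binding biotinylated APOBEC3G peptide 110-148; 0% = full assay without inhibitor and 100% = GST in place of GST-Vif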
Details: TR-FRET GST-Vif / biotin-A3G peptide binding; hits give high values

Compound	inhibition
COc1cccc(C(=O)NCC2(N3CCCCC3)CCCCC2)c1	inconclusive: 34.2%
O=C(NCC1(N2CCCCC2)CCCCC1)c1cc([N+](=O)[O-])ccc1Cl	inconclusive: 45%
